# Library screening results

From ChEMBL document CHEMBL3988442, “University of Dundee, Small-Polar-MMV Screening Library” (2021).

Mtb heat-shock: 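Assay on Mycobacterium tuberculosis, filed only as a heat shock assay from Cornell; the read-out is not stated. The concentration is filed as 10 mM, unlikely as a test dose, so the dose is not known. Higher reads as stronger inhibition (inferred: compounds with an IC50 in retests scored well above the rest). Size under these conditions: about 69,000 compounds, about 930 of them at 50% or above in at least one test.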
Mtb growth Cornell: 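Whole-cell assay for inhibitors of Mycobacterium tuberculosis growth, labelled Cornell in the record; the read-out is not stated. The concentration is filed as 10 mM, unlikely as a test dose, so the dose is not known. The record gives no direction; compounds strong in two other growth screens of this library score well above the rest, so higher reads as stronger inhibition. Size under these conditions: about 53,000 compounds, about 900 of them at 50% or above in at least one test.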

Results are given as percent effect. The record does not define 0% and 100%; most values in the screen are far below 50% and negative numbers occur (in some assays of this library far below -100). Compounds were drawn at random from those tested, without regard to their results.

* CC(Oc1ccccc1C(F)(F)F)C(=O)NCCCC(N)=O (stereo unspecified) : Mtb heat-shock: -0.4477%; Mtb growth Cornell: -49.52%
* O=C(Nc1ccc(-c2ccccc2)cn1)C1CCN(C(=O)C2CC2)CC1 : Mtb heat-shock: -16.27%; Mtb growth Cornell: 3.997%
* CC(C)c1noc(CNc2ccccc2CC(=O)N(C)C)n1 : Mtb heat-shock: 17.64%; Mtb growth Cornell: 6.991%
* Cc1cccc(CC(=O)Nc2cccnc2N2CCC(CO)CC2)c1 : Mtb heat-shock: 23.08%; Mtb growth Cornell: -8.26%
* Cc1ccnc(C2CCN(C(=O)CCn3ncc4ccccc43)C2)n1 (stereo unspecified) : Mtb heat-shock: -4.994%; Mtb growth Cornell: 14.92%
* O=C(c1ccco1)N1CCCC1C1CCN(Cc2ccccc2)CC1 (stereo unspecified) : Mtb heat-shock: 6.161%; Mtb growth Cornell: -14.17%
* O=S(=O)(N1CCOCC1)N1CCCCC1CCc1ccc(O)cc1 (stereo unspecified) : Mtb heat-shock: -22.21%; Mtb growth Cornell: 6.804%
* CC(C)NC(=O)CNC(=O)OC(C)(C)C : Mtb heat-shock: 18.28%; Mtb growth Cornell: 5.087%
* CC(C)(NS(C)(=O)=O)c1nc(-c2ccc(F)c(F)c2)no1 : Mtb heat-shock: -6.19%; Mtb growth Cornell: 9.259%
* Cc1nc(CN2CCC23CCN(Cc2ccoc2)CC3)cs1 : Mtb heat-shock: 94.23%; Mtb growth Cornell: -10.13%
* CC(C)NC(=O)CN(C)C1CCN(c2ccc(C#N)cn2)CC1 : Mtb heat-shock: -7.882%; Mtb growth Cornell: -4.749%
* Cc1cnn(CC2CCN(CC(O)c3ccccc3F)CC2)c1 (stereo unspecified) : Mtb heat-shock: 0.5851%; Mtb growth Cornell: 4.136%
* N#Cc1cccc(OCc2ccoc2C(=O)N2CCCCCC2)c1 : Mtb heat-shock: -5.494%; Mtb growth Cornell: 5.112%
* Fc1ccc(OCc2noc(CN3CCc4cncnc4C3)n2)cc1 : Mtb heat-shock: 7.454%
* CCCC1C=CCN1C(=O)c1cc(COc2ccc3c(c2)OCO3)[nH]n1 (stereo unspecified) : Mtb heat-shock: 15.09%
* Cn1ccc(CN2CCCC23CCN(Cc2ccccc2F)CC3)n1.O=C(O)C(F)(F)F.O=C(O)C(F)(F)F : Mtb heat-shock: 18.58%; Mtb growth Cornell: 3.159%
* CN1C(=O)C(C)(C)COc2cc(NS(=O)(=O)c3ccccc3F)ccc21 : Mtb heat-shock: 7.853%; Mtb growth Cornell: 1.664%
* Cc1ccccc1-n1cc(CN(C)C(=O)CC2C(=O)NCCN2C)cn1 (stereo unspecified) : Mtb heat-shock: 3.682%; Mtb growth Cornell: 32.19%
* Cc1ccc(N(CCC#N)C(=O)CN2CCCC2c2ccsc2)cc1 (stereo unspecified) : Mtb heat-shock: 3.795%
* Cn1c(=O)oc2cc(S(=O)(=O)N3CCCCC3)c(Cl)cc21 : Mtb heat-shock: -18.24%
* Cc1ccc(OCCN(C)C2CCOC2=O)cc1 (stereo unspecified) : Mtb heat-shock: -6.882%; Mtb growth Cornell: -20.63%
* Cc1nn(C)cc1-c1cc(C(F)F)nc(NC2CCCCC2)n1 : Mtb heat-shock: 17.89%; Mtb growth Cornell: 34.69%
* CNC(=O)Cn1c(CO)cnc1SCc1ccccc1Cl : Mtb heat-shock: -16.21%; Mtb growth Cornell: -32.59%
* CCOC1CCCN(C(=O)c2sccc2-n2cnnn2)C1 (stereo unspecified) : Mtb heat-shock: 17.38%; Mtb growth Cornell: 9.739%
* CCn1nc(C)c2c1cnn2CCNS(=O)(=O)c1ccccc1 : Mtb heat-shock: -16.74%; Mtb growth Cornell: -3.083%
* c1cnnc(N2CCCC2CNCCc2cccs2)c1 (stereo unspecified) : Mtb heat-shock: 9.254%; Mtb growth Cornell: 4.113%
* [H][C@]12CC[C@]([H])(CN(C(=O)CCc3cnn(C)c3)C1)N(Cc1ccccn1)C2 : Mtb heat-shock: -9.387%; Mtb growth Cornell: -8.728%
* O=C(c1cccc2c1OCO2)N1CCCC1c1noc(C2CC2)n1 (stereo unspecified) : Mtb heat-shock: -19.82%; Mtb growth Cornell: -25.36%
* CCCOc1cccc(-c2nc3c([nH]2)CCNC3)c1 : Mtb heat-shock: -17.65%
* O=C(CN1CCc2c(ncn2C2CC2)C1)NC1CCOCC1 : Mtb heat-shock: -17%
* N#Cc1cn(C2CC2)c(=O)n(Cc2noc(-c3cccs3)n2)c1=O : Mtb heat-shock: -6.041%
* COc1cccc(OC)c1OCCN1C(=O)CCNC1=O : Mtb heat-shock: -13.19%; Mtb growth Cornell: -26.07%
* Cc1cnn(CC2CN(Cc3nc(C)c(C)o3)CCO2)c1 (stereo unspecified) : Mtb heat-shock: -9.561%; Mtb growth Cornell: -3.273%
* CCc1ccc(C(=O)N2CCCC(n3nc(C)nc3C)C2)o1 (stereo unspecified) : Mtb heat-shock: -12.05%
* CCC(NC(=O)c1cccc(N2CCCC2=O)c1)c1ccc(OC)cc1 (stereo unspecified) : Mtb heat-shock: -11.34%; Mtb growth Cornell: 25.48%
* Cc1c(CN(C)c2cc(C3CCCNC3)ncn2)[nH]c2ccccc12 (stereo unspecified) : Mtb heat-shock: -0.1515%; Mtb growth Cornell: 61.5%
* O=C(NCCCn1nc2ccccn2c1=O)NC(C1CC1)C1CC1 : Mtb heat-shock: 5.746%; Mtb growth Cornell: 5.174%
* Cc1nc(-c2ccc(F)c(F)c2)cc(C2CCNCC2)n1.Cl : Mtb heat-shock: -7.049%; Mtb growth Cornell: 28.27%
* [H][C@@]12CCC(=O)N(CC(C)C)[C@]1([H])CCN(C(=O)c1ncc[nH]1)C2 : Mtb heat-shock: -0.124%
* COc1c(C)cnc(CNC(=O)c2cc(C)nc3onc(C)c23)c1C : Mtb heat-shock: 2.797%

Some entries from above, unchanged:

With CCCC1C=CCN1C(=O)c1cc(COc2ccc3c(c2)OCO3)[nH]n1 (stereo unspecified) the screen gave Mtb heat-shock: 15.09%.
With COc1cccc(OC)c1OCCN1C(=O)CCNC1=O the screen gave Mtb heat-shock: -13.19%; Mtb growth Cornell: -26.07%.
With CCCOc1cccc(-c2nc3c([nH]2)CCNC3)c1 the screen gave Mtb heat-shock: -17.65%.